Laboratory results reported in article PMC7819943, “Rice protein-binding microarrays: a tool to detect cis-acting elements near promoter regions in rice”.
This is one part of the list.

Chains of the proteins cited; added tags and fusions are not shown.
UniProt Q0JBA9, entry or part of it: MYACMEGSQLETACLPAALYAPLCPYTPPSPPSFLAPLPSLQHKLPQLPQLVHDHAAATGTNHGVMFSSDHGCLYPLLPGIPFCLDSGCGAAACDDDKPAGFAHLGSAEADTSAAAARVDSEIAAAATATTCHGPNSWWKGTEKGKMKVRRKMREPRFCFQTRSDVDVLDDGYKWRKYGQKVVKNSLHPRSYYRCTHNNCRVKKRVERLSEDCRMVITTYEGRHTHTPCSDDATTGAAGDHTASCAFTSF

target: OsWRKY34 (Oryza sativa, UniProt Q0JBA9 1-250); experiment: protein-binding microarray (RPBM); PBS, 2% BSA, 51.3 ng/ul salmon testes DNA, 50 uM zinc acetate, 200 nM TF, 25 C, 1 h; high values mean tight binding; conditions: protein: recombinant; tags: N-terminal polyhistidine and DsRed monomer fusion (pET32a); label: CyDye5-dUTP incorporated in the synthesized complementary strand; 3' TTTTT single-stranded linker to array surface; dsDNA, one strand shown
Summary of the method: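 Transcription factors were each fused at the N-terminus to a polyhistidine tag plus DsRed and expressed in E. coli BL21-CodonPlus before Ni–NTA purification. Binding to a double-stranded custom Agilent array was carried out with 200 nM protein at 25 °C for 1 h in PBS, 2% BSA, salmon testes DNA and 50 µM zinc acetate. The binding signal is per-feature fluorescence intensity, in arbitrary units, on an Axon 4000B scanner.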

| Sequence | binding signal |
| --- | --- |
| CAGTCACCTGAGGAAGTCCTAGCTCGCTCGCTCTCTCTCTCGGAGTCACCTAGTGCAG | 9610 fluorescence intensity (a.u.) |
| GGTCCGGCGGAAGTAGGGGCGGAAGTGCGGGCGGGAGATGCGGAGTCACCTAGTGCAG | 9700 fluorescence intensity (a.u.) |
| AGTTTCAAAGTTCAAACTGGCATACCGTCTACCCATGTCCCGGAGTCACCTAGTGCAG | 8880 fluorescence intensity (a.u.) |
| CTTCAAGGGTTGTGCACTTTTTCCTTCTCTCATGGATAATCGGAGTCACCTAGTGCAG | 9160 fluorescence intensity (a.u.) |
| AACTTGACGCTACCCCTATCTGGCGCGCCAATTGTCGAAACGGAGTCACCTAGTGCAG | 9010 fluorescence intensity (a.u.) |
| CAAGCCACCATCCCGACACTGTTCGAGAACCCGTCCACGTCGGAGTCACCTAGTGCAG | 9350 fluorescence intensity (a.u.) |
| CTCACTCACATGTCACGGCATCGGACATCGGTAAAGCAAACGGAGTCACCTAGTGCAG | 8840 fluorescence intensity (a.u.) |
| CTGCGCCATACCATATTTAATGCATTCCTGTCGTGCTCATCGGAGTCACCTAGTGCAG | 9820 fluorescence intensity (a.u.) |
| GCCCGCACGTCAGTGGGCGTAGGTACAGTCGGGGCGGGTGCGGAGTCACCTAGTGCAG | 8890 fluorescence intensity (a.u.) |
| AATTTTCAGCAACTTGTTCTCCTTAGTTGATAGCATATACCGGAGTCACCTAGTGCAG | 8920 fluorescence intensity (a.u.) |
| ACGCGCGGGCGCTTCGCCTCCGTCACCATCTCGCGAGATGCGGAGTCACCTAGTGCAG | 9280 fluorescence intensity (a.u.) |
| CTCGCCGTCCGCCGCCTCGCTCGCTCGCTCGCCGTCCGCCCGGAGTCACCTAGTGCAG | 9450 fluorescence intensity (a.u.) |
| AGCCACAAATCCTTATTCGTTCAATTGTTTTTCTTCCTCTCGGAGTCACCTAGTGCAG | 8140 fluorescence intensity (a.u.) |
| TGGGTGGTGGTGGTGGTTCATCTCGCCGCGGGCGCGCACACGGAGTCACCTAGTGCAG | 8400 fluorescence intensity (a.u.) |
| TTTTCTGTAGCTTTCTATTTTTTGCTAGCCTCCTTGTGATCGGAGTCACCTAGTGCAG | 8680 fluorescence intensity (a.u.) |
| AATCGGGTATGTAAACTTTTGACTTATAAACTTTGGGTCTCGGAGTCACCTAGTGCAG | 9240 fluorescence intensity (a.u.) |
| TATAGATAGATACTACCAGGGTTTCCAAACTGTTTTTTTGCGGAGTCACCTAGTGCAG | 23300 fluorescence intensity (a.u.) |
| ACTCATTTTCTTTCTGGGAGCTCTTTTATCTAACTACTCCCGGAGTCACCTAGTGCAG | 9220 fluorescence intensity (a.u.) |
| TACTCCTTCTCGCTAGCTTTGTGTTTATAGAGTTGCATTTCGGAGTCACCTAGTGCAG | 9660 fluorescence intensity (a.u.) |
| TGAGTGCCCGTGCTCCGTCCCACCGCCGTCACTGCCATCCCGGAGTCACCTAGTGCAG | 9110 fluorescence intensity (a.u.) |
| TCCTTCATATTATAAGACTTTCTAGCATTGCCCACATTCACGGAGTCACCTAGTGCAG | 8870 fluorescence intensity (a.u.) |

| Sequence | binding signal |
| --- | --- |
| GGGTAATGGAGGAGATGGGCCAGTAGGGTTGGTGACTGTTCGGAGTCACCTAGTGCAG | 9380 fluorescence intensity (a.u.) |
| AAGTCAAAACAGCGTTAGTCTAAGCCCTATATAAACGCTCCGGAGTCACCTAGTGCAG | 8460 fluorescence intensity (a.u.) |
| AGGGGTGGGATTGAGATTGGGAAATAAATAAAATGTTAGGCGGAGTCACCTAGTGCAG | 8140 fluorescence intensity (a.u.) |
| CCTCCCTACCATTGGGCCCTTGCCCCTTACTTTTGTACAACGGAGTCACCTAGTGCAG | 9420 fluorescence intensity (a.u.) |
| GGGTGTGTTGTGGTGGTTACCTTCCGGGTTCCGGCGCATCCGGAGTCACCTAGTGCAG | 9920 fluorescence intensity (a.u.) |
| TCACTCACTCACTTCGCTTGCTTTGCTTGGCCCGATCCTTCGGAGTCACCTAGTGCAG | 10100 fluorescence intensity (a.u.) |
| CGTGGGAGTCGTAGTGATTCTGTGCTTGGGTTGGATGTTGCGGAGTCACCTAGTGCAG | 8950 fluorescence intensity (a.u.) |
| TTCTCGAGCTGCTCGATCGCGATTTTTTTTCATTTTTAATCGGAGTCACCTAGTGCAG | 12600 fluorescence intensity (a.u.) |
| CAGCCCGCCGCCCCGCCCCGCCCCGCCGCAGGTCATTGACCGGAGTCACCTAGTGCAG | 16400 fluorescence intensity (a.u.) |
| GGGGAAGACGACGTCCGGTTGTTTTATTCGGATGGGCCTCCGGAGTCACCTAGTGCAG | 9020 fluorescence intensity (a.u.) |
| TTGCCTTCTTCCTAGCTGCACACACCAACTTCACCGGAACCGGAGTCACCTAGTGCAG | 8640 fluorescence intensity (a.u.) |
| TTTTCTTCAACTTCAAACTTCACCTTCATCATTTTTAGTTCGGAGTCACCTAGTGCAG | 9680 fluorescence intensity (a.u.) |
| AAGTTTAGAACTTGATCGAGGTGGGCGGATTCTACTACAACGGAGTCACCTAGTGCAG | 9280 fluorescence intensity (a.u.) |
| CCTCTGTTTCCGGAACGGTCTCTATCTTCGATTCCGCTTCCGGAGTCACCTAGTGCAG | 10200 fluorescence intensity (a.u.) |
| TTCCTCCATTTCCACCGGCGCCGGCGGCCGCCGAAACCGCCGGAGTCACCTAGTGCAG | 8060 fluorescence intensity (a.u.) |
| TACCGTCTTTTCCGGATGTTACAACTTTTTTACGTTACAGCGGAGTCACCTAGTGCAG | 9910 fluorescence intensity (a.u.) |
| ATCACACGAAAGACGTTACTACGATTCTCTTTCTTCCAAACGGAGTCACCTAGTGCAG | 9040 fluorescence intensity (a.u.) |
| ACTTTTTTTTTTGCACTAGTGAATAGCCTTTTTTCCTTTCCGGAGTCACCTAGTGCAG | 11500 fluorescence intensity (a.u.) |
| CTCGCATCACACTAGCTTGACACGCCCTCAATTTCTCACACGGAGTCACCTAGTGCAG | 8140 fluorescence intensity (a.u.) |
| AGAAAAATCCCATTTCTCCTTTCAGTCCCTGTCCACTTACCGGAGTCACCTAGTGCAG | 11900 fluorescence intensity (a.u.) |
| CTTTTGCCAAAGAACCACTACTACCTTTTGCCCAAGAACACGGAGTCACCTAGTGCAG | 8220 fluorescence intensity (a.u.) |

Reformatted with tabs: entries from further up
Sequence	binding signal
GGGGAAGACGACGTCCGGTTGTTTTATTCGGATGGGCCTCCGGAGTCACCTAGTGCAG	9020 fluorescence intensity (a.u.)
TTGCCTTCTTCCTAGCTGCACACACCAACTTCACCGGAACCGGAGTCACCTAGTGCAG	8640 fluorescence intensity (a.u.)

Reprinted at random: two entries already listed.

| Sequence | binding signal |
| --- | --- |
| TTTTCTTCAACTTCAAACTTCACCTTCATCATTTTTAGTTCGGAGTCACCTAGTGCAG | 9680 fluorescence intensity (a.u.) |
| TTCTCGAGCTGCTCGATCGCGATTTTTTTTCATTTTTAATCGGAGTCACCTAGTGCAG | 12600 fluorescence intensity (a.u.) |
